Data on two molecules can be found in patent publication US20240174758A1 (AstraZeneca / MedImmune, published 2024).

The target of test [1] is T1, cynomolgus CCR9 (cynomolgus, UniProt Q0H741 1-369).
T1 sequence: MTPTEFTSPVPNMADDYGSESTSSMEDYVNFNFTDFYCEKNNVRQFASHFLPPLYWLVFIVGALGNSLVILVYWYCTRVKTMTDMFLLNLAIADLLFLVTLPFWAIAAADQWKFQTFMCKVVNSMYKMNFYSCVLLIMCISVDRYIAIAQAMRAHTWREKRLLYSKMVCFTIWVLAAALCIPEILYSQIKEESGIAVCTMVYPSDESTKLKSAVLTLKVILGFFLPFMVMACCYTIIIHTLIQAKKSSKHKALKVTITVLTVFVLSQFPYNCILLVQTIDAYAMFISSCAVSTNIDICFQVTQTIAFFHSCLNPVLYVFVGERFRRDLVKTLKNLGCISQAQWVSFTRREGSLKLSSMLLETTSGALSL
The experiment in a line: cell binding by the methods of Example 4.

The target of test [2] is T1, cynomolgus CCR9. The experiment in a line: binding to cells expressing cynomolgus CCR9 (Cyno CCR9), FL1 counts against Log M, methods of Example 4.
Test [3] addresses T1, cynomolgus CCR9. The experiment in a line: binding to cells expressing cynomolgus CCR9A (Cyno CCR9A), FL1 counts against Log M, methods of Example 4.

Results are given in words; binding and its absence hold for the method and conditions named. Some entries that bind do so weakly or less than the wild type.

B1: Humanised AB1020243 (AB1020243-fgl) (antibody, V domains shown)
VH: QVQLVQSGAEVKKPGASVKVSCKASGYTFTSYWMHWVRQAPGQGLEWIGVIYPGNSDTRYNQKFKGRVTITRDTSASTAYMELSSLRSEDTAVYYCTRDYYSNYVYYYAMDYWGQGTTVTVSS
VL: DIVMTQTPLSLPVTPGEPASISCRSSQSLVHSNGNTYLHWYLQKPGQSPQLLIYKVSNRFSGVPDRFSGSGSGTDFTLKISRVEAEDVGVYYCSQSTHVPWTFGQGTKLEIK
notes: For LigandTracer it was labelled with DyLight 650 on an engineered cysteine in CH2; also called humanised AB1020243 afuc
Turning to B1, the binding result with cynomolgus CCR9 [1] and with cynomolgus CCR9 [2] was “binds” throughout.

B2: AB243LO0326 (antibody, V domains shown)
VH: QVQLVQSGAEVKKPGASVKVSCKASGYTFTSYWMHWVRQAPGQGLEWIGVIYPGNSDTRYNQKFKGRVTITRDTSASTAYMELSSLRSEDTAVYYCTRDYYSNYVYYYAMDYWGQGTTVTVSS
VL: DIVMTQTPLSLPVTPGEPASISCRSSQSLVHPNRNTYLHWYLQKPGQSPQLLIYKVSNRFSGVPDRFSGSGSGTDFTLKISRVEAEDVGVYYCSQSTHVPWTFGQGTKLEIK
notes: CDR-optimised humanised antibody, a-fuc huIgG1 (afucosylated in all experiments); For LigandTracer it was labelled with DyLight 650 on an engineered cysteine in CH2; also called CDR-optimised AB1020243
As for B2, the binding entry with cynomolgus CCR9 [1] and with cynomolgus CCR9 [3] was “binds” each time.
